# Source: PubChem BioAssay AID328 (DTP/NCI, 2004)
# The list does not hold the whole screen: it gathers tests that were run many times, whatever their T/C, doses with no T/C, and many T/C values between a quarter and a half above the control. Further doses and runs are listed elsewhere. T/C is the treated group as % of the vehicle group. Some entries give survivors of the animals treated and no T/C: the source holds a T/C of zero for them, seemingly a mark for toxic or unscored doses. Some survivor counts are full or nearly so, which does not show that the dose was tolerated: survival well below the control is almost never listed, so the zero probably covers shortened survival too. Survivors were counted at the toxicity check, usually on the fifth day, unless a day is given; later deaths do not show. Schedules are NCI's codes, read here as Q, the interval in days (D) or hours (H), X, the number of doses. Some entries hold several experiments; the values are given in rising order. Where survival is the endpoint, this PubChem deposit counts one and a half times the control or more as active, and values a quarter to a half above the control carry no call in these data; other NCI protocols may use other cut-offs. Some T/C values carry the count of animals alive at the toxicity check (mostly the fifth day); where none is given, no animal had died by that day.
# System: BDF1 mice, P388 leukemia ip, median survival T/C
# Experiment: NCI In Vivo Anticancer Drug Screen. Data for tumor model P388 Leukemia (intraperitoneal) in B6D2F1 (BDF1) mice
# Details: T/C endpoint: median survival time, higher T/C = longer survival
# Method in brief: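 Steps: implant the tumour, treat one group with compound and another with vehicle, record survival, then divide treated by control.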
# [1] = dose: 300.0 mg/kg/injection, schedule: Q01DX009 (ip), vehicle: saline with Tween-80
# [2] = dose: 100.0 mg/kg/injection, schedule: Q04DX003 (ip), vehicle: saline
# [3] = dose: 100.0 mg/kg/injection, schedule: Q01DX009 (ip), vehicle: saline with Tween-80
# [4] = dose: 200.0 mg/kg/injection, schedule: Q01DX009 (ip), vehicle: saline with Tween-80
# [5] = dose: 100.0 mg/kg/injection, schedule: Q01DX009 (ip), vehicle: saline
# [6] = dose: 200.0 mg/kg/injection, schedule: Q01DX009 (ip), vehicle: saline
# [7] = dose: 400.0 mg/kg/injection, schedule: Q01DX009 (ip), vehicle: saline with Tween-80
# [8] = dose: 50.0 mg/kg/injection, schedule: Q04DX003 (ip), vehicle: saline with Tween-80
# [9] = dose: 100.0 mg/kg/injection, schedule: Q04DX003 (ip), vehicle: saline with Tween-80
# [10] = dose: 200.0 mg/kg/injection, schedule: Q04DX003 (ip), vehicle: saline with Tween-80
# [11] = dose: 200.0 mg/kg/injection, schedule: Q01DX009 (ip), vehicle: Klucel (hydroxypropylcellulose) (HPC)
# [12] = dose: 400.0 mg/kg/injection, schedule: Q01DX009 (ip), vehicle: Klucel (hydroxypropylcellulose) (HPC)
# [13] = dose: 400.0 mg/kg/injection, schedule: Q01DX009 (ip), vehicle: saline
# [14] = dose: 400.0 mg/kg/injection, schedule: Q04DX003 (ip), vehicle: saline
# [15] = dose: 100.0 mg/kg/injection, schedule: Q01DX009 (ip), vehicle: Klucel (hydroxypropylcellulose) (HPC)
# [16] = dose: 50.0 mg/kg/injection, schedule: Q01DX009 (ip), vehicle: Klucel (hydroxypropylcellulose) (HPC)
compound,measurement,setting,value
CC(=O)N1C(=O)NC(=O)C1(C)c1cccs1 (stereo not given),survivor count,[1],4 of 6
CCOC(=O)c1cnc2c(cnn2CC)c1NN=C(C)C,T/C,[2],133 % of control
CC(=O)OC1(CSc2ccccc2)CCCCC1,T/C,[3],141 % of control
same,T/C,[4],129 % of control
C1CN(P2(N3CC3)=NP(N3CC3)(N3CC3)=NP(N3CC3)(N3CC3)=N2)CCO1 (stereo not given),T/C,"dose: 3.13 mg/kg/injection, schedule: Q01DX009 (ip), vehicle: saline",127 % of control
same,survivor count,[5],10 of 10 and 6 of 6
same,survivor count,[6],2 of 6
CCCOC(=O)C1(N)CCCC1,survivor count,[7],6 of 6
C=CCN(C#N)CC=C,survivor count,"dose: 18.75 mg/kg/injection, schedule: Q04DX003 (ip), vehicle: saline",6 of 6
same,survivor count,"dose: 37.5 mg/kg/injection, schedule: Q04DX003 (ip), vehicle: saline",4 of 6
same,survivor count,[8],3 of 6
same,survivor count,"dose: 75.0 mg/kg/injection, schedule: Q04DX003 (ip), vehicle: saline",1 of 6
same,survivor count,[9],3 of 6
same,survivor count,[10],3 of 6
O=[N+]([O-])c1cnc2ccnn2c1,survivor count,[11],6 of 6
same,survivor count,[12],4 of 6
NC(=S)c1ccc[n+](Cc2c(Cl)cccc2Cl)c1,survivor count,"dose: 200.0 mg/kg/injection, schedule: Q04DX002 (ip), vehicle: saline with Tween-80",0 of 6
CCOC(=O)C1Cc2c([nH]c(=O)[nH]c2=O)OC1c1cccc(Cl)c1 (stereo not given),T/C,"dose: 12.5 mg/kg/injection, schedule: Q01DX009 (ip), vehicle: saline with Tween-80",127 % of control
OC1OCCOC1O (stereo not given),T/C,"dose: 60.0 mg/kg/injection, schedule: Q01DX009 (ip), vehicle: saline",142 % of control
same,T/C,[5],141 and 142 % of control
same,T/C,[6],149 % of control
same,survivor count,"dose: 600.0 mg/kg/injection, schedule: Q01DX009 (ip), vehicle: saline",3 of 6
CC(=O)C/C(C)=N/NC(=O)c1ccncc1,survivor count,"dose: 75.0 mg/kg/injection, schedule: Q01DX009 (ip), vehicle: saline with Tween-80",7 of 7
same,survivor count,[1],7 of 7
NC(=O)CNCCS(=O)(=O)O,survivor count,[13],6 of 6
O=S(=O)(O)c1c(Cl)c(Cl)c(Cl)c(Cl)c1Cl,survivor count,"dose: 400.0 mg/kg/injection, schedule: Q04DX003 (ip), vehicle: suspension in saline",2 of 6
Nc1nc(SCc2cccc(Br)c2)c2ncn(C3OC(CO)C(O)C3O)c2n1 (stereo not given),survivor count,"dose: 400.0 mg/kg/injection, schedule: Q04DX003 (ip), vehicle: saline with Tween-80",0 of 6
Cn1nnc2nnc(-c3ccccc3)n21,survivor count,[7],4 of 6
CN(C)c1ccc(/C=C2\C=Cc3ccccc32)cc1,survivor count,"dose: 25.0 mg/kg/injection, schedule: Q04DX003 (ip), vehicle: saline with Tween-80",6 of 6
same,survivor count,[8],6 of 6
same,survivor count,[3],6 of 6
same,survivor count,[9],6 of 6
same,survivor count,[4],6 of 6
same,survivor count,[10],6 of 6
same,survivor count,[7],4 of 6 and 6 of 6
ClC(Cl)(Cl)C(Cl)(Cl)c1ccc(C(Cl)(Cl)C(Cl)(Cl)Cl)cc1,survivor count,[3],5 of 6
same,T/C,"dose: 200.0 mg/kg/injection, schedule: Q04DX003 (ip), vehicle: saline sonified",129 % of control
same,survivor count,[7],6 of 6
Nc1cc2c(c[n+](Cc3ccccc3)c3ccccc23)c2ccccc12,T/C,"dose: 1.56 mg/kg/injection, schedule: Q04DX003 (ip), vehicle: other",125 % of control
same,survivor count,"dose: 6.25 mg/kg/injection, schedule: Q04DX003 (ip), vehicle: other",6 of 6
same,survivor count,"dose: 12.5 mg/kg/injection, schedule: Q04DX003 (ip), vehicle: other",3 of 6
same,survivor count,"dose: 25.0 mg/kg/injection, schedule: Q04DX003 (ip), vehicle: other",0 of 6
O=C(CS)OCCOC(=O)CS,survivor count,[2],6 of 6
same,survivor count,[11],3 of 6
same,survivor count,"dose: 200.0 mg/kg/injection, schedule: Q04DX003 (ip), vehicle: saline",6 of 6
same,survivor count,[14],6 of 6
O=C(Cn1ccc(=O)[nH]c1=O)Nc1nccs1,survivor count,"dose: 50.0 mg/kg/injection, schedule: Q04DX003 (ip), vehicle: saline",2 of 6 and 4 of 6
ONc1nc(NO)c2[nH]cnc2n1,T/C,"dose: 44.0 mg/kg/injection, schedule: Q01DX001 (ip), vehicle: water",136 % of control
same,T/C,"dose: 66.0 mg/kg/injection, schedule: Q01DX001 (ip), vehicle: water",136 % of control
same,T/C,"dose: 100.0 mg/kg/injection, schedule: Q01DX001 (ip), vehicle: water",136 % of control
same,T/C,"dose: 150.0 mg/kg/injection, schedule: Q01DX001 (ip), vehicle: water",131 % of control
O=c1[nH]c(=O)c2nccnc2[nH]1,survivor count,"dose: 200.0 mg/kg/injection, schedule: Q01DX009 (ip), vehicle: water",6 of 6
same,T/C,"dose: 400.0 mg/kg/injection, schedule: Q01DX009 (ip), vehicle: water",138 % of control [4 of 6 alive]
COC1NC(=O)NC(=O)C1=[N+]=[N-] (stereo not given),T/C,"dose: 7.5 mg/kg/injection, schedule: Q01DX009 (ip), vehicle: saline with Tween-80",137 % of control
CN(C)CCCN1c2ccc(O)cc2Sc2ccc(Cl)cc21,survivor count,"dose: 50.0 mg/kg/injection, schedule: Q01DX009 (ip), vehicle: other",4 of 10
same,survivor count,"dose: 100.0 mg/kg/injection, schedule: Q01DX009 (ip), vehicle: other",0 of 10
C=C1C(=O)OC(/C=C(\C)CO)C1C(C/C(C)=C/CO)OC(=O)/C(C)=C\C (stereo not given),survivor count,[12],0 of 6
O=C1OCC2CC3c4ccccc4C12c1ccccc13 (stereo not given),T/C,"dose: 100.0 mg/kg/injection, schedule: Q01DX001 (ip), vehicle: Klucel (hydroxypropylcellulose) (HPC)",135 % of control
CCOC(=O)C1(C(=O)OCC)COC(C)(C)OC1,T/C,[15],130 % of control
same,T/C,[14],131 % of control
CCOC(=O)c1oc2ccccc2c1CN,survivor count,[4],6 of 6
Cn1ncc2c(N)ncnc21,survivor count,"dose: 12.5 mg/kg/injection, schedule: Q01DX009 (ip), vehicle: Klucel (hydroxypropylcellulose) (HPC)",5 of 6
same,survivor count,"dose: 25.0 mg/kg/injection, schedule: Q01DX009 (ip), vehicle: Klucel (hydroxypropylcellulose) (HPC)",6 of 6
same,survivor count,[16],6 of 6
same,survivor count,[15],2 of 6
COc1ccc(C2=CC(=O)C(c3ccc(OC)cc3)=CC2=O)cc1,survivor count,"dose: 10.0 mg/kg/injection, schedule: Q01DX009 (ip), vehicle: gum acacia",6 of 6
same,survivor count,"dose: 20.0 mg/kg/injection, schedule: Q01DX009 (ip), vehicle: gum acacia",6 of 6
O=[N+]([O-])c1ccc(S(=O)(=O)Cc2ccccc2)c2nonc12,survivor count,"dose: 50.0 mg/kg/injection, schedule: Q01DX009 (ip), vehicle: saline with Tween-80",3 of 7
same,survivor count,[3],0 of 7
ClC(Cl)(Cl)SSC(=Nc1ccccc1)SSC(Cl)(Cl)Cl,survivor count,[4],0 of 6
CCn1cnc2c(SC)nc(N)nc21,survivor count,[16],5 of 6
same,survivor count,[11],6 of 6
C=C1C(=O)OC2CC(C)C3(O)CCC(C)(CC(OC(=O)C(C)C)C12)O3 (stereo not given),survivor count,"dose: 10.0 mg/kg/injection, schedule: Q01DX009 (ip), vehicle: saline",6 of 6
same,survivor count,"dose: 20.0 mg/kg/injection, schedule: Q01DX009 (ip), vehicle: saline",6 of 6
same,T/C,[11],129 % of control
same,survivor count,[11],3 of 6
same,survivor count,[12],1 of 6
CC(=O)OCC(C)OC(C)=O (stereo not given),survivor count,[13],6 of 6
COC(=O)c1c2ccccc2cn1Cc1ccccc1,survivor count,[3],6 of 6
CN(C)c1ccc(/C=C/c2ccnc3c(O)ccc(O)c23)cc1,survivor count,[4],6 of 6
